The text below walks through data of the supplement of paper PMC12067093, “Discovery and optimisation of a covalent ligand for TRIM25 and its application to targeted protein ubiquitination” (Chemical Science, 2025).

Sequences of proteins named here, by UniProt entry; tags and fusion partners are left off. A change or cut given only in a name is not applied to a line headed by its entry.
UniProt Q99996, whole entry, looked up: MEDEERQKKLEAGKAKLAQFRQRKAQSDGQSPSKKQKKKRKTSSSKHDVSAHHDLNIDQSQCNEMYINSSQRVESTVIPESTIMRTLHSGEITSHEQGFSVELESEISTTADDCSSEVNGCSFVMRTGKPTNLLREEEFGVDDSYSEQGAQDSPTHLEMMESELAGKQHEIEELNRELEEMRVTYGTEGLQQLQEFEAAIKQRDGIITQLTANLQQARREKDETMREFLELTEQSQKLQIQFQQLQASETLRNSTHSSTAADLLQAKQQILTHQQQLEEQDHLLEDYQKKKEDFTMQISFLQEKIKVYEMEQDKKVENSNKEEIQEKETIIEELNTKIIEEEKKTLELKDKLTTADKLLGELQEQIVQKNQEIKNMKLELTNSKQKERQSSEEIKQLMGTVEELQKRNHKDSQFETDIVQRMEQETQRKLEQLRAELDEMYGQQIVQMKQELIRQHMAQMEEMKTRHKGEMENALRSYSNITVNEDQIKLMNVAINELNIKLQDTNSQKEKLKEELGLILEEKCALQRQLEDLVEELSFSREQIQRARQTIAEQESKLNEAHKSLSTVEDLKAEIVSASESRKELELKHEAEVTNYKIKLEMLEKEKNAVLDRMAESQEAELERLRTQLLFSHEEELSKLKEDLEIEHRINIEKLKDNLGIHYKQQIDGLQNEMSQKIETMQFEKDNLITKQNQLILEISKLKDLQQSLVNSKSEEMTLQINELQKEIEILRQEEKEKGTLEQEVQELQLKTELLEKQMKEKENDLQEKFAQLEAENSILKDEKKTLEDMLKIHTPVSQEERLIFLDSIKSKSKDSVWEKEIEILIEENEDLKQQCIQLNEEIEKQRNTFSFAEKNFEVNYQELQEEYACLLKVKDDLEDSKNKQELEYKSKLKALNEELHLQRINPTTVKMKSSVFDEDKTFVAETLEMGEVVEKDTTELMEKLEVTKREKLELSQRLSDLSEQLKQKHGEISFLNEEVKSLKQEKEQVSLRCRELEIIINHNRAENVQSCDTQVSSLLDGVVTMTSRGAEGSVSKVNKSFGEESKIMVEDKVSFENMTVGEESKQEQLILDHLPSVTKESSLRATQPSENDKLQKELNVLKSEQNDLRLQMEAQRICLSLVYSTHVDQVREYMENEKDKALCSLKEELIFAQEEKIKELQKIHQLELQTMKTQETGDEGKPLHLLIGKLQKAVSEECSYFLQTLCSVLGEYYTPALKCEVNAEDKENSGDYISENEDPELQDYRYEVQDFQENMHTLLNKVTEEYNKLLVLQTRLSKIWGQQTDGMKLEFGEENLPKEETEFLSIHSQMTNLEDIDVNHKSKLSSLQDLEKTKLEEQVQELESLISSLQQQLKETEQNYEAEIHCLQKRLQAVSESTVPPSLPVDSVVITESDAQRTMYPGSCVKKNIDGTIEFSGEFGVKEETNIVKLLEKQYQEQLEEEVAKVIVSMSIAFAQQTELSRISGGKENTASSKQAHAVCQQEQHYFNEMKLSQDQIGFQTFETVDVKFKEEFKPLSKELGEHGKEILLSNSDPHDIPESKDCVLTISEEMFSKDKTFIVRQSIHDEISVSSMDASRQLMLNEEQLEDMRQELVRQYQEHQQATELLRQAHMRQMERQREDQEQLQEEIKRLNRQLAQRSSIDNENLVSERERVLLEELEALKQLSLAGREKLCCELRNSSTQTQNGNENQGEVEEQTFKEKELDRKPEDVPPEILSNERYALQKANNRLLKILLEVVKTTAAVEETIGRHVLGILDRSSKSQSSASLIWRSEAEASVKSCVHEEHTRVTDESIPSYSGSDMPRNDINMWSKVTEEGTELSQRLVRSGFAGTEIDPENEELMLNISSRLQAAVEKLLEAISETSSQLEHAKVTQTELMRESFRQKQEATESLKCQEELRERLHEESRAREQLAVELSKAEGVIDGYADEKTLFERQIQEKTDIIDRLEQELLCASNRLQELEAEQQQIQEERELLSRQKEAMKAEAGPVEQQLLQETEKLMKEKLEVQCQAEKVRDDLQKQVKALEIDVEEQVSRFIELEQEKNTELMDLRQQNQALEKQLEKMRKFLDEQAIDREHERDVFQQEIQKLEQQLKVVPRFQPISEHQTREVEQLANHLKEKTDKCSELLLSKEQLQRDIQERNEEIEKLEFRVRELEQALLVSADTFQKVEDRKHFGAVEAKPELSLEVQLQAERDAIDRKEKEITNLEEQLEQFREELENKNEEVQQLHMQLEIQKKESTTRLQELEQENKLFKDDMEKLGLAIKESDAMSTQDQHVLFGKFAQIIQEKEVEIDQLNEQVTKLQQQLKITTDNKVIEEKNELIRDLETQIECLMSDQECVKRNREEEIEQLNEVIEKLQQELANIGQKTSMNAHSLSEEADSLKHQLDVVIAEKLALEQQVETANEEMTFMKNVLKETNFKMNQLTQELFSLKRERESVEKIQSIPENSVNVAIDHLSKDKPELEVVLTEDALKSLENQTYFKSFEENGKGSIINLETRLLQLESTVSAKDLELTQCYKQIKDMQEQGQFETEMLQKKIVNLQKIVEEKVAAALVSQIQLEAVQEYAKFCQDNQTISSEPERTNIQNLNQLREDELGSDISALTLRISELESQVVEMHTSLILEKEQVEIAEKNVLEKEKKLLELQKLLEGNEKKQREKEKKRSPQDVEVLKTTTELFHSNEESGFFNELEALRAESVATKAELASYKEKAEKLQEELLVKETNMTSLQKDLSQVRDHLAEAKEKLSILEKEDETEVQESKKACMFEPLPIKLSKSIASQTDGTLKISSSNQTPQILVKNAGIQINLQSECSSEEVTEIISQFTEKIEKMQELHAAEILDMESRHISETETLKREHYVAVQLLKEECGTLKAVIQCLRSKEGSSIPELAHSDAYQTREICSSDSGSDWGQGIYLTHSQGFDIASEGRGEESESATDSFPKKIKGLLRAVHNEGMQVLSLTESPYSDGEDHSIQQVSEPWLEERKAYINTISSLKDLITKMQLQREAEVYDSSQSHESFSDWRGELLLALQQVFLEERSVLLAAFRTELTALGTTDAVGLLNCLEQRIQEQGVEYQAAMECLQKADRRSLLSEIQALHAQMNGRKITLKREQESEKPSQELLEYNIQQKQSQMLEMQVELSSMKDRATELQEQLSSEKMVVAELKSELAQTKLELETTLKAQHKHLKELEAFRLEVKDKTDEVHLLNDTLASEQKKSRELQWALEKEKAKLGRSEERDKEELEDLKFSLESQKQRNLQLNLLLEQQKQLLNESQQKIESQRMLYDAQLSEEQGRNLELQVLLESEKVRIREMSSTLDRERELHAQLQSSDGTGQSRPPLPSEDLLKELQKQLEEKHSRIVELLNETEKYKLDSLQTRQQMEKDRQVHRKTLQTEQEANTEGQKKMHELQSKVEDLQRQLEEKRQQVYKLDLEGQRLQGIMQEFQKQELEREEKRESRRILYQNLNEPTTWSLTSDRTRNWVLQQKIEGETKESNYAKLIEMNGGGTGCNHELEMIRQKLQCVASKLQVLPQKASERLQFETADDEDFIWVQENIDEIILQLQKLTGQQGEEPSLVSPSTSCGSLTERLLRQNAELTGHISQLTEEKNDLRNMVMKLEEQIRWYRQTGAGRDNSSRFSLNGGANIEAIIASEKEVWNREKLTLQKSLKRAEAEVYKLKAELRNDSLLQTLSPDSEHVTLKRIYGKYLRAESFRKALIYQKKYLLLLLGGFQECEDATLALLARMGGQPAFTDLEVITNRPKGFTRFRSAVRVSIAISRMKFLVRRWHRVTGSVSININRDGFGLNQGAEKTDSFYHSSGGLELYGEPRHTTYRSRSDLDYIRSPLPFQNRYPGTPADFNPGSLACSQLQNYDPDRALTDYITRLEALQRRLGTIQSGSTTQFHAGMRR
UniProt P09972: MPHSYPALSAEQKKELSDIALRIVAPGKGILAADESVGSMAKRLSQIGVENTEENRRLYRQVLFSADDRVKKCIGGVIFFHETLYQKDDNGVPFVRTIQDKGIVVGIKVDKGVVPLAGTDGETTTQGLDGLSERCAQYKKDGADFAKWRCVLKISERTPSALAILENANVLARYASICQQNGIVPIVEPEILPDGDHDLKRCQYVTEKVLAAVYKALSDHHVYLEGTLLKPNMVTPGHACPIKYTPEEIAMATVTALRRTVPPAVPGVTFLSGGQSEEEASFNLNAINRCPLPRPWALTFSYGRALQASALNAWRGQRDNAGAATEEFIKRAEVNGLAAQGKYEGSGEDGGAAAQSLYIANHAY
UniProt Q01433: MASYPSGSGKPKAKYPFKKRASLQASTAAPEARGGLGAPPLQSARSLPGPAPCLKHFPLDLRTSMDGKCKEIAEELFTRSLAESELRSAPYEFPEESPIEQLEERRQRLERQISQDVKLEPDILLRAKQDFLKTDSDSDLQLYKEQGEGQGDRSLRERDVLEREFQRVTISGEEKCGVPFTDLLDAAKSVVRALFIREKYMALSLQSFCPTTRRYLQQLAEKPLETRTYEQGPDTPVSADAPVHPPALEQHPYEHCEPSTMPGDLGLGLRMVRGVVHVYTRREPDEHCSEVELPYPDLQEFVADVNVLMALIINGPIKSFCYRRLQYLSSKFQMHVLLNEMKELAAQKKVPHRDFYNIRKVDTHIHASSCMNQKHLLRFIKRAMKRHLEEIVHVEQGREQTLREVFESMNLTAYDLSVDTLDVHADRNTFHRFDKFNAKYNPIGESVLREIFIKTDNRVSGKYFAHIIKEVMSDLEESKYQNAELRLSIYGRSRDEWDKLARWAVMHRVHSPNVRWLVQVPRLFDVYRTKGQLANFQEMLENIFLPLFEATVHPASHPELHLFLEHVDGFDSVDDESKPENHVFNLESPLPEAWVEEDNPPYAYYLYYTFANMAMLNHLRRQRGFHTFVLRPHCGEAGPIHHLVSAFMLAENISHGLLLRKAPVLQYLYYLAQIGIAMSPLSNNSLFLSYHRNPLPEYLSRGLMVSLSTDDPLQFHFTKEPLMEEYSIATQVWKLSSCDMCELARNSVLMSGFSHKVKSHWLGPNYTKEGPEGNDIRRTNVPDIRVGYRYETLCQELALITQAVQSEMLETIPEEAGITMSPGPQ
UniProt Q9P2R3: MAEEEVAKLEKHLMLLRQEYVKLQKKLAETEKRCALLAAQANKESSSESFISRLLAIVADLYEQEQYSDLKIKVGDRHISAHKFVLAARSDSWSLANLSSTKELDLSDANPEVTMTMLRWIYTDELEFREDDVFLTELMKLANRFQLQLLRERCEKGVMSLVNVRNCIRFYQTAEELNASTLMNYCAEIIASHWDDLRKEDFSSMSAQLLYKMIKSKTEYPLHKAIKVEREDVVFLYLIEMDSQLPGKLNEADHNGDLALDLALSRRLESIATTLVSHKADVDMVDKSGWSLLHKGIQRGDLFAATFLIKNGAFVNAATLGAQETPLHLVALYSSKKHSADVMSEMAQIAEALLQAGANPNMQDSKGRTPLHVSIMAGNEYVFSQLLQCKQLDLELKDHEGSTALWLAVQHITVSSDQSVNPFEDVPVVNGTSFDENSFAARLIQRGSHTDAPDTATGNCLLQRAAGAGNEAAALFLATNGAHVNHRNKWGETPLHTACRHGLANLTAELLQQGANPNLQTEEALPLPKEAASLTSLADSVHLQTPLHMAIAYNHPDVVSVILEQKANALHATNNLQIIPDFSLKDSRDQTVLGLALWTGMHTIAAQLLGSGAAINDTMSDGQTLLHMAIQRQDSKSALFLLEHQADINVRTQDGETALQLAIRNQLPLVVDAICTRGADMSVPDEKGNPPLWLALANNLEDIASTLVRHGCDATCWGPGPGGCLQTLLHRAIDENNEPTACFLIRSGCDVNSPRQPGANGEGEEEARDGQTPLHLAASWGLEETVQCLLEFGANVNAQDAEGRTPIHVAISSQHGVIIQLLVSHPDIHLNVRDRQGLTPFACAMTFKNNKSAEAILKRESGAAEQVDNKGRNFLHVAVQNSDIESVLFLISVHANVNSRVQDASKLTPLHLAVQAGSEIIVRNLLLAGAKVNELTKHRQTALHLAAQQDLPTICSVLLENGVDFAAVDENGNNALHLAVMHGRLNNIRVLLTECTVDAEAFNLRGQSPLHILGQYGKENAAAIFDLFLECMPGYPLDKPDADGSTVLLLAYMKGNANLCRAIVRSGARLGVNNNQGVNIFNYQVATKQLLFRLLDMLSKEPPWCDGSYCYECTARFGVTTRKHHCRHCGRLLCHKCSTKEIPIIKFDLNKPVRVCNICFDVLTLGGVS

Compound in this assay: Cc1cc(ccc1-c1ccccc1)C(=O)N1CCCN(CC1)C(=O)CCl [compound 10]
Kind of assay: probe-labelled cysteine peptide fold change vs DMSO (competition) (log2 fold change); higher = less target engagement (more negative = stronger competition). The following applies: THP-1, incubation time: 4 h.

The other results are listed elsewhere or left out.
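Note: competitive profiling in live THP-1 cells: cysteine peptides tagged with an iodoacetamide desthiobiotin (IA-DTB) probe, intensity after compound treatment relative to DMSO-treated cells.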

Turning to “ALDH18A1_P54886_546_EAVQLVNTREEVEDLCR (UniProt P54886)”, the “probe-labelled cysteine peptide fold change” value (10 µM) was determined as 0.0034 and the “probe-labelled cysteine peptide fold change” value (50 µM) was -0.0393.

With “ALCAM_Q13740_113_FVCMLVTEDNVFEAPTIVK (UniProt Q13740)”, the “probe-labelled cysteine peptide fold change” value is -0.00103 (10 µM) and 0.293 (50 µM).

As to “AKAP9_Q99996_1954_TDIIDRLEQELLCASNR (UniProt Q99996)”, the “probe-labelled cysteine peptide fold change” value reads like this: (10 µM) -0.0778; (50 µM) -0.162.

For “ALDOC_P09972_240_PNMVTPGHACPIK (UniProt P09972)”, the “probe-labelled cysteine peptide fold change” value was -0.134 (10 µM) and 0.0797 (50 µM).

As for “AMN1_Q8IY45_230_ILLFHGCPLITDHSR (UniProt Q8IY45)”, the “probe-labelled cysteine peptide fold change” value runs as follows: (10 µM) 0.224; (50 µM) -0.121.

Consider “AMPD2_Q01433_792_LSSCDMCELAR (UniProt Q01433)”, for which the “probe-labelled cysteine peptide fold change” value was 0.143 (10 µM) and -0.0423 (50 µM).

Take “AKAP9_Q99996_836_QQCIQLNEEIEK (UniProt Q99996)”: the “probe-labelled cysteine peptide fold change” value was determined as 0.178 (10 µM) and 0.193 (50 µM).

For “ANKFY1_Q9P2R3_995_VLLTECTVDAEAFNLR (UniProt Q9P2R3)”, the “probe-labelled cysteine peptide fold change” value is 0.102 (10 µM) and -0.0106 (50 µM).

Consider “ANKFY1_Q9P2R3_712+716_HGCDATCWGPGPGGCLQTLLHR (UniProt Q9P2R3)”, for which the “probe-labelled cysteine peptide fold change” value is, setting by setting: (10 µM) 0.00946; (50 µM) 0.0105.

Turning to “ALDOC_P09972_240_ALSDHHVYLEGTLLKPNMVTPGHACPIK (UniProt P09972)”, the “probe-labelled cysteine peptide fold change” value runs as follows: (10 µM) -0.228; (50 µM) -0.369.

“AHCTF1_Q8WYP5_354_LLGCQSIEK (UniProt Q8WYP5)”: the “probe-labelled cysteine peptide fold change” value reads like this: (10 µM) -0.194; (50 µM) -0.167.

“AMPD2_Q01433_263_YMALSLQSFCPTTR (UniProt Q01433)”: the “probe-labelled cysteine peptide fold change” value was -0.0503 (10 µM) and 0.0846 (50 µM).

In the case of “AKAP9_Q99996_1782_SCVHEEHTR (UniProt Q99996)”, the “probe-labelled cysteine peptide fold change” value runs as follows: (10 µM) -0.202; (50 µM) -0.115.

As to “AKR7A2_O43488_132+156_LQCPQVDLFYLHAPDHGTPVEETLHACQR (UniProt O43488)”, the “probe-labelled cysteine peptide fold change” value is, setting by setting: (10 µM) -0.102; (50 µM) 0.0726.

“AMPD3_Q01432_691_LSTCDLCEIAR (UniProt Q01432)”: the “probe-labelled cysteine peptide fold change” value by setting is: (10 µM) -0.0324; (50 µM) -0.156.

As to “AKAP2_Q9Y2D5_10_MEIEVSVAECK (UniProt Q9Y2D5)”, the “probe-labelled cysteine peptide fold change” value (10 µM) was -0.3 and the “probe-labelled cysteine peptide fold change” value (50 µM) is -0.232.

Consider “ANKHD1_Q8IWZ3_1390_EVNQFPSDIECMR (UniProt Q8IWZ3)”, for which the “probe-labelled cysteine peptide fold change” value by setting is: (10 µM) 0.2; (50 µM) 0.328.

For the target “AGPS_O00116_297_ESGYCTGHEPDSLEFSTVGGWVSTR (UniProt O00116)”, the “probe-labelled cysteine peptide fold change” value is -0.105 (10 µM) and -0.0291 (50 µM).

With “AHCYL1_O43865_272_LCVPAMNVNDSVTK (UniProt O43865)”, the “probe-labelled cysteine peptide fold change” value runs as follows: (10 µM) 0.0131; (50 µM) -0.135.
